This is one part of the list. The main result of the screen is listed elsewhere. These columns were measured beside it and carry no call. The list favours compounds with an active or inconclusive main result. The note in brackets gives the kind of curve behind each potency; many fits are weak.
Experiment: qHTS Assay for Lipid Storage Modulators in Drosophila S3 Cells;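 on cell number change: cells counted by Cell Tracker Red CMTPX staining in the red channel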
Settings: BODIPY lipid droplet fluorescence, 18-24 h; for cell number change: measured here: cell count max response, cells fed with added oleic acid
In short: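 Drosophila S3 cells got compounds at several concentrations plus oleic acid (400 uM solution). Laser-scanning cytometry with 488 nm excitation read lipid droplets at 500-530 nm and cells at 575-640 nm. Percent activity was relative to 20 uM Triacsin C.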

[1] = measured here: lipid fluorescence (Fed channel) AC50, cells fed with added oleic acid
[2] = measured here: cell number channel AC50, cells fed with added oleic acid

| SMILES | cell number change | AC50 [1] | AC50 [2] |
| --- | --- | --- | --- |
| NC(=O)c1ccc(NC(=O)COC(=O)c2n[nH]c3ccccc23)cc1 | 7.66% | 7.31 µM [falling, partial curve] |  |
| COc1ccccc1C(=O)N1CCCC1(C#N)c1ccccc1 (stereo not given) |  | 0.259 µM [falling, partial curve, poor fit] |  |
| Cc1nc2ccn(Cc3ccccc3)c(=O)c2cc1C(=O)N1CCN(c2ccccc2)CC1 | 29.6% | 20.6 µM [rising, single point] |  |
| COc1ccccc1OCCNC(=O)C(c1ccccc1)c1ccccc1 | 19.4% |  |  |
| Cc1cc(Cl)ccc1OCC(=O)NCc1ccncc1 | -20.3% | 29.1 µM [falling, single point] |  |
| Cc1ccc(C2OCC3(CO)COC(c4ccc(C)cc4)N23)cc1 (stereo not given) | -44.2% |  | 32.6 µM [falling, single point] |
| CC1CCCC(NC(=O)CSc2ncccn2)C1C (stereo not given) | 3.96% | 0.58 µM [falling, single point] |  |
| C[C@@H]1NC(=O)N(c2ccc(F)cc2)C1=O | 32.4% |  | 1.46 µM [rising, full curve] |
| CCCCN(Cc1ccco1)C(=O)c1cc2c(=O)[nH]c3ccc(C)cc3c2s1 | -32.5% | 2.91 µM [falling, partial curve, poor fit] | 2.06 µM [falling, single point] |
| Cc1ccc(C)c(-n2nnnc2SCC(=O)NCC2CCCO2)c1 (stereo not given) | 18.7% | 0.00517 µM [rising, full curve, poor fit] |  |
| CN(C(=O)CCNC(=O)Cn1cnc2ccccc2c1=O)c1ccc(Br)cc1 | 9.66% | 0.00517 µM [rising, full curve, poor fit] |  |
| Cc1nc2c(C)cccc2cc1C(=O)N/N=C/c1cccnc1 | 15.7% | 29.1 µM [rising, single point] |  |
| CCOc1cc(/C=N/Nc2nn3cnnc3c3ccccc23)ccc1O | -17.7% | 29.1 µM [falling, single point] |  |
| CCOCCCNC(=O)C(NC(=O)CNC(=O)c1ccccc1)c1ccccc1 (stereo not given) | 13.8% | 29.1 µM [falling, partial curve] |  |
| COc1ccc(N(CC(=O)NCc2cccs2)S(=O)(=O)c2cccnc2)cc1 | 44.8% | 2.91 µM [rising, full curve] | 10.3 µM [rising, partial curve] |
| CC(C)(C)N(Cc1ccccc1)C(=O)COc1cccnc1[N+](=O)[O-] | 16% | 4.61 µM [rising, partial curve] |  |
| O=C(Nc1ccccc1Cc1ccccc1)c1ccc2c(c1)SC1=NS(=O)(=O)CCN12 | -31.3% | 7.31 µM [falling, partial curve, poor fit] | 25.9 µM [falling, single point] |
| COc1ccc(-c2nnc3ccc(SCC(=O)NCc4ccco4)nn23)cc1 | -10.4% | 1.16 µM [rising, partial curve] |  |
| COc1ccc(S(=O)(=O)N2CCc3ccccc32)cc1NC(C)=O | -2.94% | 6.51 µM [falling, single point] |  |
| Cc1nn(C)c(C)c1NS(=O)(=O)c1ccc(N2CCCC2=O)cc1 | -35.1% | 1.46 µM [falling, partial curve] | 29.1 µM [falling, single point] |
| CC(=O)N1N=C(c2cccs2)CC1c1ccc(C)o1 (stereo not given) | -47.4% |  | 25.9 µM [falling, partial curve, poor fit] |
| Cc1ccc(C(=O)CCC(=O)Nc2ncccc2C)cc1 | 48.1% | 11.6 µM [rising, partial curve, poor fit] | 8.2 µM [rising, partial curve, poor fit] |
| Cc1ccccc1N(C(=O)c1csnn1)C(C(=O)NC1CCCC1)c1ccncc1 (stereo not given) | 64.1% |  | 29.1 µM [rising, single point] |
| COc1ccc(C(=O)CSc2nnc(CNC(=O)c3ccc(OC)c(OC)c3)n2C)cc1 | 14.6% |  | 0.0058 µM [rising, full curve, poor fit] |
| CC(Sc1ccc([N+](=O)[O-])cn1)C(=O)Nc1nccs1 (stereo not given) | 2.56% | 29.1 µM [falling, single point] |  |
| CCn1c(CC(=O)Nc2ccccc2)nnc1SCC(=O)NC1=NCCS1 | 5.98% |  |  |
| COc1cc2nc(-c3ccccc3C)oc(=O)c2cc1OC | -13.6% | 16.4 µM [falling, single point] |  |
| CCn1nnnc1SCC(=O)c1ccc(NC(C)=O)cc1 |  | 5.8 µM [falling, single point] | 0.651 µM [rising, single point] |
| O=c1oc2ccc3ccccc3c2c2c1SC(C(F)(F)F)C2 (stereo not given) |  | 0.731 µM [rising, single point] | 0.82 µM [rising, partial curve] |

Given tab-delimited: entries from further up.
SMILES	cell number change	AC50 [1]	AC50 [2]
COc1ccccc1C(=O)N1CCCC1(C#N)c1ccccc1 (stereo not given)		0.259 µM [falling, partial curve, poor fit]	
Cc1nc2ccn(Cc3ccccc3)c(=O)c2cc1C(=O)N1CCN(c2ccccc2)CC1	29.6%	20.6 µM [rising, single point]	
Cc1ccc(C2OCC3(CO)COC(c4ccc(C)cc4)N23)cc1 (stereo not given)	-44.2%		32.6 µM [falling, single point]
C[C@@H]1NC(=O)N(c2ccc(F)cc2)C1=O	32.4%		1.46 µM [rising, full curve]
CCOc1cc(/C=N/Nc2nn3cnnc3c3ccccc23)ccc1O	-17.7%	29.1 µM [falling, single point]	
CC(=O)N1N=C(c2cccs2)CC1c1ccc(C)o1 (stereo not given)	-47.4%		25.9 µM [falling, partial curve, poor fit]
CCn1nnnc1SCC(=O)c1ccc(NC(C)=O)cc1		5.8 µM [falling, single point]	0.651 µM [rising, single point]

Reference: PubChem BioAssay AID2685 (National Center for Advancing Translational Sciences (NCATS), 2010)
